## Screening data

Source: PubChem BioAssay AID1347114 (NCATS, 2019).

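After two days of treatment, luminescence reports how many live, metabolically active DAOY childhood brain tumor cells remain. Each compound ran as a dilution series, mostly reaching about 46 µM at the top. The value is the fitted half-maximal potency (AC50) for cell killing; a lower number means a more potent compound. Calls come from curve class: inconclusive rows carry a score of 1 to 39 because their curves are weak, partial, poorly fitted or single-point, while actives score 40 to 100.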

Values are in µM. All entries here are filed as inconclusive. These entries are mostly ones the record files as inconclusive; other results of the assay are not listed here. Potencies fitted to partial, single-point or poorly fitting curves are rough. Some entries filed as inconclusive have a full curve. Activity scores are not listed here.

| SMILES | fitted potency (µM) | curve |
|---|---|---|
| `CCC(=O)OCC(=O)[C@@]1(OC(=O)CC)[C@@H](C)C[C@@H]2[C@H]3CCC4=CC(=O)C=C[C@]4(C)[C@@]3(F)[C@@H](O)C[C@@]21C` | 32.91 | cytotoxic, single point |
| `Clc1ccc(C(Cn2ccnc2)OCc2ccsc2Cl)c(Cl)c1` (stereo unspecified) | 20.76 | cytotoxic, partial curve, poor fit |
| `CN1C[C@H](C(=O)N[C@]2(C)O[C@@]3(O)[C@@H]4CCCN4C(=O)[C@H](Cc4ccccc4)N3C2=O)C[C@@H]2c3cccc4[nH]cc(c34)C[C@H]21` | 36.92 | cytotoxic, partial curve, poor fit |
| `Nc1nc(Cl)nc2c1ncn2[C@@H]1O[C@H](CO)[C@@H](O)[C@@H]1F` | 1.649 | cytotoxic, full curve |
| `O=C(CC12CC3CC(CC(C3)C1)C2)Nc1cccc2nc(NCCNCCO)ccc12` | 32.91 | cytotoxic, single point |
| `CN1N=C(N)c2cn([C@@H]3O[C@H](COP(=O)(O)O)[C@@H](O)[C@@H]3O)c3ncnc1c23` | 11.68 | cytotoxic, partial curve |
| `CCOc1cc2ncc(C#N)c(Nc3ccc(F)c(Cl)c3)c2cc1NC(=O)C=CCN(C)C` | 36.92 | cytotoxic, single point |
| `Cn1cnc2c(F)c(Nc3ccc(Br)cc3Cl)c(C(=O)NOCCO)cc21` | 11.68 | cytotoxic, single point |
| `N#Cc1c(NC(=O)c2cccc3ccccc23)sc2c1CCCC2` | 0.2933 | cytotoxic, full curve |
| `CC(=O)O[C@@]12CO[C@H]1C[C@H](O)[C@@]1(C)C(=O)[C@H](O)C3=C(C)[C@@H](OC(=O)C(O)[C@@H](NC(=O)OC(C)(C)C)c4ccccc4)C[C@@](O)([C@@H](OC(=O)c4ccccc4)[C@@H]21)C3(C)C` (stereo partly specified) | 0.0117 | cytotoxic, full curve |
| `C[C@@]1(C(=O)Nc2ccc(F)nc2)CCCN1c1nc(Nc2cc(C3CC3)[nH]n2)c2cccn2n1` | 0.2933 | cytotoxic, full curve |
| `N#CC(=C1Nc2ccccc2S1)c1ccnc(OCc2ccc(CN3CCOCC3)cc2)n1` | 5.216 | cytotoxic, full curve |
| `CCc1cc(C(C)=NOCc2ccc(C3CCCCC3)c(C(F)(F)F)c2)ccc1CN1CC(C(=O)O)C1` | 16.49 | cytotoxic, partial curve, poor fit |
| `NC(=O)c1cccc2cn(-c3ccc([C@@H]4CCCNC4)cc3)nc12` | 32.91 | cytotoxic, single point |
| `CC(=O)OCC(=O)[C@@]1(OC(C)=O)[C@@H](C)C[C@H]2[C@@H]3C[C@H](F)C4=CC(=O)C=C[C@]4(C)[C@@]3(F)[C@@H](O)C[C@@]21C` | 36.92 | cytotoxic, single point |
| `CCC(c1ccc(O)cc1)C(CC)c1ccc(O)cc1` (stereo unspecified) | 29.33 | cytotoxic, single point |
| `CC=C(C)C(=O)O[C@H]1C(C)=C[C@]23C(=O)[C@@H](C=C(CO)[C@@H](O)[C@]12O)[C@H]1[C@@H](C[C@H]3C)C1(C)C` | 0.0104 | cytotoxic, full curve |
| `C=CC(=O)Nc1cccc(Oc2nc(Nc3ccc(N4CCN(C)CC4)cc3OC)ncc2Cl)c1` | 32.91 | cytotoxic, single point |
| `CC[C@@H]1C=C(C)C[C@H](C)C[C@H](OC)[C@H]2O[C@@](O)(C(=O)C(=O)N3CCCC[C@@H]3C(=O)O[C@H](C(C)=C[C@@H]3CC[C@H](Cl)[C@H](OC)C3)[C@H](C)[C@@H](O)CC1=O)[C@H](C)C[C@H]2OC` | 16.49 | cytotoxic, partial curve |
| `CC(=O)O[C@H]1C(=O)[C@@]2(C)C([C@H](OC(=O)c3ccccc3)[C@]3(O)C[C@H](OC(=O)[C@H](O)[C@@H](NC(=O)c4ccccc4)c4ccccc4)C(C)=C1C3(C)C)[C@]1(OC(C)=O)CO[C@@H]1C[C@@H]2O` (stereo partly specified) | 0.0083 | cytotoxic, full curve |
| `CC(COc1ccccc1)N(CCCl)Cc1ccccc1` (stereo unspecified) | 18.51 | cytotoxic, partial curve |
| `OCCCNc1cc(-c2ccnc(Nc3cccc(Cl)c3)n2)ccn1` | 0.4143 | cytotoxic, full curve, poor fit |
| `Cc1c(C(=O)Nc2ccc(N3C[C@@H](C)O[C@@H](C)C3)nc2)cccc1-c1ccc(OC(F)(F)F)cc1` | 2.933 | cytotoxic, full curve |
| `CS(=O)(=O)N1CCN(Cc2cc3nc(-c4cccc5[nH]ncc45)nc(N4CCOCC4)c3s2)CC1` | 12.03 | cytotoxic, partial curve |
| `CNC(=O)c1cccc(-c2ccc3c(N4CCOC[C@H]4C)nc(N4CCOC[C@H]4C)nc3n2)c1` | 1.47 | cytotoxic, full curve, poor fit |

For reference, 2 entries once more:

- CN1C[C@H](C(=O)N[C@]2(C)O[C@@]3(O)[C@@H]4CCCN4C(=O)[C@H](Cc4ccccc4)N3C2=O)C[C@@H]2c3cccc4[nH]cc(c34)C[C@H]21 | fitted potency 36.92 µM (cytotoxic, partial curve, poor fit)
- OCCCNc1cc(-c2ccnc(Nc3cccc(Cl)c3)n2)ccn1 | fitted potency 0.4143 µM (cytotoxic, full curve, poor fit)